Source: PubChem BioAssay AID1224830 (NIAID, 2016)
In all, the deposit lists about 18,000 reagents; this is a random part of them. About 2,900 of them (16%) count as active. 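Calls are made per well; low scores hint the gene aids the LPS response, high scores that it dampens it.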 A number with no mark means an inactive call. Repeated entries: four replicate wells of each siRNA pool.

- Purpose: 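Regulators of TLR4 signalling towards TNF-alpha in macrophage-like cells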 (primary screen)
- System: human THP-1 monocytic leukaemia cells, TNF dual-luciferase reporter clone, PMA-differentiated to macrophage-like cells
- Reagents: siRNA pool against human genes, 50 nM
- Timing: LPS for 4 h, given about 3 days after siRNA transfection
- Challenge: bacterial LPS (TLR4 ligand), 10 ng/ml
- Read-out: 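TNF firefly reporter luminescence divided by renilla, normalised to the plate median, then turned into a robust z-score for each replicate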
- Direction: TNF reporter robust z-score: higher = stronger TNF reporter response to LPS
- Active means: 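Each well counts as active if its z-score is over 2.8 or under -1.5; controls are left without a call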

{"Gene": "EVA1A (eva-1 homolog A, regulator of programmed cell death)", "TNF reporter robust z-score": -0.22}
{"Gene": "EVA1A (eva-1 homolog A, regulator of programmed cell death)", "TNF reporter robust z-score": -0.79}
{"Gene": "EVA1A (eva-1 homolog A, regulator of programmed cell death)", "TNF reporter robust z-score": -0.3}
{"Gene": "WWC2 (WW and C2 domain containing 2)", "TNF reporter robust z-score": -0.22}
{"Gene": "WWC2 (WW and C2 domain containing 2)", "TNF reporter robust z-score": -0.11}
{"Gene": "WWC2 (WW and C2 domain containing 2)", "TNF reporter robust z-score": 0.72}
{"Gene": "WWC2 (WW and C2 domain containing 2)", "TNF reporter robust z-score": -0.21}
{"Gene": "FAM53C (family with sequence similarity 53 member C)", "TNF reporter robust z-score": -0.58}
{"Gene": "FAM53C (family with sequence similarity 53 member C)", "TNF reporter robust z-score": -1.11}
{"Gene": "FAM53C (family with sequence similarity 53 member C)", "TNF reporter robust z-score": -0.98}
{"Gene": "FAM53C (family with sequence similarity 53 member C)", "TNF reporter robust z-score": -1.4}
{"Gene": "PLEC (plectin)", "TNF reporter robust z-score": -0.48}
{"Gene": "PLEC (plectin)", "TNF reporter robust z-score": 0.18}
{"Gene": "PLEC (plectin)", "TNF reporter robust z-score": 0.11}
{"Gene": "PLEC (plectin)", "TNF reporter robust z-score": 0.35}
{"Gene": "SLC27A5", "TNF reporter robust z-score": 1.02}
{"Gene": "SLC27A5", "TNF reporter robust z-score": -0.02}
{"Gene": "SLC27A5", "TNF reporter robust z-score": -0.34}
{"Gene": "SLC27A5", "TNF reporter robust z-score": 0.42}
{"Gene": "CUEDC1 (CUE domain containing 1)", "TNF reporter robust z-score": -0.32}
{"Gene": "CUEDC1 (CUE domain containing 1)", "TNF reporter robust z-score": -0.98}
{"Gene": "CUEDC1 (CUE domain containing 1)", "TNF reporter robust z-score": 0.16}
{"Gene": "RELCH", "TNF reporter robust z-score": 1.94}
{"Gene": "RELCH", "TNF reporter robust z-score": 1.41}
{"Gene": "RELCH", "TNF reporter robust z-score": -0.28}
{"Gene": "RELCH", "TNF reporter robust z-score": 1.55}
{"Gene": "YJU2 (YJU2 splicing factor homolog)", "TNF reporter robust z-score": -1.26}
{"Gene": "YJU2 (YJU2 splicing factor homolog)", "TNF reporter robust z-score": -0.71}
{"Gene": "YJU2 (YJU2 splicing factor homolog)", "TNF reporter robust z-score": -1.08}
{"Gene": "YJU2 (YJU2 splicing factor homolog)", "TNF reporter robust z-score": -0.93}
{"Gene": "SDHB (succinate dehydrogenase complex iron sulfur subunit B)", "TNF reporter robust z-score": 0.43}
{"Gene": "SDHB (succinate dehydrogenase complex iron sulfur subunit B)", "TNF reporter robust z-score": 0.59}
{"Gene": "SDHB (succinate dehydrogenase complex iron sulfur subunit B)", "TNF reporter robust z-score": 2.04}
{"Gene": "SDHB (succinate dehydrogenase complex iron sulfur subunit B)", "TNF reporter robust z-score": -0.18}
{"Gene": "COMMD10 (COMM domain containing 10)", "TNF reporter robust z-score": 2.05}
{"Gene": "COMMD10 (COMM domain containing 10)", "TNF reporter robust z-score": 2.51}
{"Gene": "COMMD10 (COMM domain containing 10)", "TNF reporter robust z-score": 0.66}
{"Gene": "COMMD10 (COMM domain containing 10)", "TNF reporter robust z-score": -0.72}
{"Gene": "CCL3L1 (C-C motif chemokine ligand 3 like 1)", "TNF reporter robust z-score": -0.24}
{"Gene": "CCL3L1 (C-C motif chemokine ligand 3 like 1)", "TNF reporter robust z-score": -0.03}
{"Gene": "CCL3L1 (C-C motif chemokine ligand 3 like 1)", "TNF reporter robust z-score": 0.18}
{"Gene": "CCL3L1 (C-C motif chemokine ligand 3 like 1)", "TNF reporter robust z-score": "3.25 (active)"}
{"Gene": "DEFB118 (defensin beta 118)", "TNF reporter robust z-score": -0.4}
{"Gene": "DEFB118 (defensin beta 118)", "TNF reporter robust z-score": -1.23}
{"Gene": "DEFB118 (defensin beta 118)", "TNF reporter robust z-score": -0.59}
{"Gene": "DEFB118 (defensin beta 118)", "TNF reporter robust z-score": -0.12}
{"Gene": "YPEL3 (yippee like 3)", "TNF reporter robust z-score": 1.14}
{"Gene": "YPEL3 (yippee like 3)", "TNF reporter robust z-score": 0.72}
{"Gene": "YPEL3 (yippee like 3)", "TNF reporter robust z-score": 0.2}
{"Gene": "YPEL3 (yippee like 3)", "TNF reporter robust z-score": 0.8}
